From US12247972B2 (priority 2018, dated 2025)

Test system: CHO cells transiently expressing SCN5A (Nav1.5), CACNα1C (Cav1.2), KCNH2 and ChRWR

COC(=O)C1=C(C)NC(C)=C(C(=O)OC)C1c1ccccc1[N+](=O)[O-] [Nifedipine]
effect on action potential (calcium channel suppression): decreased the amplitude of action potential
